Values from PubChem BioAssay AID1053208 (Peter MacCallum Cancer Centre, 2014)

Screen: 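Synthetic lethal interactions between gene loss and doxorubicin in osteosarcoma cells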 (primary screen)
System: mouse osteosarcoma cells, early-passage culture from an engineered mouse model of fibroblastic bone tumour
Reagents: siRNA pool against mouse genes, 40 nM
Timing: about 120 h (48 h before drug, then 72 h with drug)
Challenge: doxorubicin 100 nM for 72 h, roughly 30-40% inhibitory dose
Measured: 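Luminescent ATP signal taken as viability with or without 100 nM doxorubicin for 72 h; mean of two wells set against non-targeting siRNA and turned into robust z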
Scale: viability z-score with doxorubicin: higher = more viable cells under doxorubicin; viability z-score without drug: higher = more viable cells with knock-down alone
Call rule: 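a pool counts as active when its viability z-score with doxorubicin is -2 or below and its z-score without drug lies between -2 and 2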
The deposit covers about 17,000 reagents; shown is a random part of them. Of all reagents, 788 (4.7%) got an active call. 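Calls rest on z-score classes alone; an extra cut-off of viability at most 70% of control was not applied to them.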 The numbers tell different reagents against one gene apart. Not all columns of the deposit are shown.

{"gene": "Prnd (GeneID 26434)", "reagent": 1, "combined z-score class": "no change with or without drug", "viability z-score with doxorubicin": 0.22, "viability z-score without drug": -0.67, "call": "inactive"}
{"gene": "St8sia3 (GeneID 20451)", "reagent": 1, "combined z-score class": "no change with or without drug", "viability z-score with doxorubicin": -0.22, "viability z-score without drug": -0.51, "call": "inactive"}
{"gene": "Ntn3 (GeneID 18209)", "reagent": 1, "combined z-score class": "no change with or without drug", "viability z-score with doxorubicin": 0, "viability z-score without drug": -0.84, "call": "inactive"}
{"gene": "Ifi30 (GeneID 65972)", "reagent": 1, "combined z-score class": "no change with or without drug", "viability z-score with doxorubicin": -0.45, "viability z-score without drug": -1.01, "call": "inactive"}
{"gene": "Ctsm (GeneID 64139)", "reagent": 1, "combined z-score class": "no change with or without drug", "viability z-score with doxorubicin": 1.57, "viability z-score without drug": -0.34, "call": "inactive"}
{"gene": "Alx3 (GeneID 11694)", "reagent": 1, "combined z-score class": "high cell count with doxorubicin only", "viability z-score with doxorubicin": 2.7, "viability z-score without drug": 0.67, "call": "inactive"}
{"gene": "Jph2 (GeneID 59091)", "reagent": 1, "combined z-score class": "no change with or without drug", "viability z-score with doxorubicin": -0.45, "viability z-score without drug": 0.17, "call": "inactive"}
{"gene": "Nrg3 (GeneID 18183)", "reagent": 1, "combined z-score class": "no change with or without drug", "viability z-score with doxorubicin": 0.9, "viability z-score without drug": -1.85, "call": "inactive"}

Continued (2 carried over from the part before).
{"gene": "Jph2 (GeneID 59091)", "reagent": 1, "combined z-score class": "no change with or without drug", "viability z-score with doxorubicin": -0.45, "viability z-score without drug": 0.17, "call": "inactive"}
{"gene": "Nrg3 (GeneID 18183)", "reagent": 1, "combined z-score class": "no change with or without drug", "viability z-score with doxorubicin": 0.9, "viability z-score without drug": -1.85, "call": "inactive"}
{"gene": "Or8b57 (GeneID 258824)", "reagent": 1, "combined z-score class": "no change with or without drug", "viability z-score with doxorubicin": -0.79, "viability z-score without drug": -0.51, "call": "inactive"}
{"gene": "Tmem147 (GeneID 69804)", "reagent": 1, "combined z-score class": "no change with or without drug", "viability z-score with doxorubicin": -0.45, "viability z-score without drug": 0, "call": "inactive"}
{"gene": "Zfp954 (GeneID 232853)", "reagent": 1, "combined z-score class": "no change with or without drug", "viability z-score with doxorubicin": -1.35, "viability z-score without drug": -0.17, "call": "inactive"}
{"gene": "Dab1 (GeneID 13131)", "reagent": 1, "combined z-score class": "no change with or without drug", "viability z-score with doxorubicin": -0.22, "viability z-score without drug": 0, "call": "inactive"}
{"gene": "Dab1 (GeneID 13131)", "reagent": 2, "combined z-score class": "no change with or without drug", "viability z-score with doxorubicin": 1.12, "viability z-score without drug": 0, "call": "inactive"}
{"gene": "Scai (GeneID 320271)", "reagent": 1, "combined z-score class": "high cell count without drug only", "viability z-score with doxorubicin": 0.67, "viability z-score without drug": 2.53, "call": "inactive"}
{"gene": "Tdpoz1 (GeneID 207213)", "reagent": 1, "combined z-score class": "no change with or without drug", "viability z-score with doxorubicin": -0.45, "viability z-score without drug": 0.34, "call": "inactive"}
{"gene": "Rec8 (GeneID 56739)", "reagent": 1, "combined z-score class": "no change with or without drug", "viability z-score with doxorubicin": -0.67, "viability z-score without drug": -0.17, "call": "inactive"}
{"gene": "Zfp638 (GeneID 18139)", "reagent": 1, "combined z-score class": "no change with or without drug", "viability z-score with doxorubicin": -1.46, "viability z-score without drug": 0.17, "call": "inactive"}
{"gene": "Islr2 (GeneID 320563)", "reagent": 1, "combined z-score class": "no change with or without drug", "viability z-score with doxorubicin": 0.79, "viability z-score without drug": -0.34, "call": "inactive"}
{"gene": "Fgd3 (GeneID 30938)", "reagent": 1, "combined z-score class": "no change with or without drug", "viability z-score with doxorubicin": 0.67, "viability z-score without drug": 1.01, "call": "inactive"}
